# Hit rate of the full screen: of about 360,000 compounds, about 780 (0.22%) were called active. Inconclusive results, whose numbers are uncertain, are shown with a selection of clear calls. Rule as the data show it: active = inhibition above about 35% (passing the limit was not always enough); inconclusive = no clear call, values can overlap the other calls.
# Test system: Botulinum neurotoxin type F light chain protease (Clostridium botulinum)
# Assay: BoNT/F light chain protease inhibitors, primary screen, biochemical, flow cytometry, MLPCN library (AID 588497); also: plate controls were buffer without enzyme for full effect and enzyme alone for no effect
# Details: Multiplex microsphere protease cleavage assay, at 10 µM, active compounds read high
row,Structure (SMILES),inhibition
1,COCc1ccc2oc(C(=O)O)cc2c1,inconclusive: -30.2%
2,Cc1occc1C(=O)Nc1cccc(Cl)c1Cl,inactive: 0.3%
3,COc1ccc(S(=O)(=O)N2CCN(C(=O)c3ccco3)CC2)c(C)c1C,inconclusive: 8.2%
4,CCCOc1ccc(N2C(=O)CC(NCC(=O)OCC)C2=O)cc1 (stereo not drawn),inconclusive: 20.7%
5,Cn1c(=O)oc2cc(S(=O)(=O)Nc3ccc(F)cc3)ccc21,inactive: 2.6%
6,O=C(CCc1nc2ccccc2[nH]1)Nc1ccccc1,inconclusive: -22.7%
7,COc1cc(OC)c(OC)cc1CNc1cc(C)ccc1OC,inactive: -11.9%
8,Cc1c(CCC(=O)O)c(=O)oc2cc3occ(-c4ccc(Cl)cc4)c3cc12,inconclusive: -18.2%
9,COc1ccccc1NC(=O)c1cnc(SC)nc1,inconclusive: 8.2%
10,COCc1ccc(CN2CCC(n3nccc3NC(=O)c3ccc4c(c3)OCO4)CC2)o1,inactive: -0.8%
11,Cc1cccc(NC(=O)CCN2C(=O)c3cccc([N+](=O)[O-])c3C2=O)c1,inconclusive: -8.1%
12,CCOC(=O)N1CCN(C(=O)c2cn(CC)c3ccc(S(=O)(=O)N4CCCCC4)cc3c2=O)CC1,inactive: -4.3%
13,CN1C2=CC=CC=CC2=[N+](C)C12C([N+](=O)[O-])=CC(=[N+]([O-])[O-])C=C2[N+](=O)[O-] (stereo not drawn),inconclusive: 9%
14,O=C1CC(=O)N(c2cccc(Br)c2)C(=O)N1,inactive: 8.7%
15,Cc1nn(-c2ccccn2)c(N)c1N=O,inconclusive: 10.1%
16,CCc1cc2ccc(C)cc2nc1SCC(=O)Nc1cc(OC)c(OC)cc1C(=O)O,inactive: -10.2%
17,CC(C)(C)NC(=O)C[C@H]1C[C@H](C(=O)N2CCOCC2)[C@@]2(CCC3CCCC3)c3[nH]c4cc(-c5ccco5)ccc4c3CCN2C1=O,inactive: -4.9%
18,O=c1c(-c2nc3ccccc3s2)cccn1Cc1ccccc1,inactive: 1.1%
19,CC1CC(C)CN(C(=O)C2CCC(CNc3c(N4CCCCC4)c(=O)c3=O)CC2)C1 (stereo not drawn),inactive: -10.9%
20,c1ccc(C(c2ccccc2)c2ccn[nH]2)cc1,inconclusive: -36.9%
21,CC(C)(C)c1ccc(CS(=O)(=O)CC(O)CN2CCCC2=O)cc1 (stereo not drawn),inconclusive: -40.3%
22,Cc1ccc(-n2cc3c(-c4cccc(Br)c4)nnc(C)c3n2)cc1,active: 63%
23,COc1ccc(NC(=O)Cn2nnc(-c3ccccc3)c2COc2ccc(C(C)=O)cc2)cn1,inactive: -3.8%
24,CCOc1cc(C(=S)N2CCOCC2)ccc1OS(=O)(=O)c1ccc(OC)cc1,inconclusive: -5.2%

# Part of the list above in order of SMILES length, descending:
row,Structure (SMILES),inhibition
16,CCc1cc2ccc(C)cc2nc1SCC(=O)Nc1cc(OC)c(OC)cc1C(=O)O,inactive: -10.2%
2,Cc1occc1C(=O)Nc1cccc(Cl)c1Cl,inactive: 0.3%
1,COCc1ccc2oc(C(=O)O)cc2c1,inconclusive: -30.2%

# Next results.

row,Structure (SMILES),inhibition
1,O=S(=O)(c1ccc(F)cc1)N1CCN(CCc2ccccc2)CC1,inconclusive: -38.2%
2,CC1CC(=O)Nc2ccccc2N1S(=O)(=O)c1ccc(F)cc1F (stereo not drawn),inactive: 8.3%
3,COc1cccc(CNC(=O)COC(=O)c2ccc(Cl)s2)c1,inactive: -8.2%
4,O=C(O)c1ccc2c(c1)C(=O)N(CCc1c[nH]c3ccccc13)C2=O,inactive: 2.4%
5,COc1ccc(C2NC(=O)NC3=C2C(=O)CCC3)cc1 (stereo not drawn),inconclusive: -1.5%
6,CCOc1ccc(CCNC(=O)CCCN2C(=O)c3ccccc3C2=O)cc1OCC,inactive: 1.5%
7,COc1ccc(CN(C)CC2CCCN(CCc3ccccc3C)C2)cc1O (stereo not drawn),inconclusive: -33.3%
8,COc1ccc(C(=O)CC(=O)C(=O)Nc2cccc(C(C)=O)c2)cc1,inactive: -23.4%
9,CCOC(=O)c1c(-c2ccccc2)cn2c(C)cc(C)nc12,inactive: 7.6%
10,Cc1onc(-c2ccccc2)c1CNS(=O)(=O)c1cccc(Br)c1,inconclusive: -67.6%
11,COC(=O)Cn1cc(C=C2C(=O)NC(=O)NC2=O)c2ccccc21,active: 42%
12,CC(=O)Nc1ccc(N=Nc2ccccc2)cc1,inactive: -8.5%
13,Cc1ccc(SC(=O)c2c(C)noc2-c2cc(C)on2)cc1,inconclusive: -26.3%
14,Cc1ccc(-c2csc3nc[nH]c(=S)c23)cc1C,inactive: -11%
15,CN(C)C(=O)COc1ccc2c(-c3ccccc3)cc(=O)oc2c1,inconclusive: 15.9%
16,COc1ccc(C(=O)O)cc1NCc1cccnc1,inconclusive: 25.8%
17,CC(C)(C)C(=O)O/N=C(\N)c1c(Cl)cccc1Cl,inconclusive: 37.2%
18,OCC[C@@H]1C[C@H](O)[C@@H](O)[C@]2(OCc3ccc4ccccc4c32)O1,inactive: 4.1%
19,N#CCCn1cc(C(=O)Nc2ccc([N+](=O)[O-])cc2)c(-c2ccccc2)n1,inactive: -1.6%
20,Cc1cccc(OCC(=O)NCC(=O)N/N=C/c2cc(Br)cc(Br)c2O)c1,inactive: 2.6%
21,O=C(c1cnc2ccccc2n1)N1CCN(c2ccc(C(F)(F)F)cn2)CC1,inconclusive: 40.5%
22,Cc1csc(SCC(=O)NC2CCC(C)CC2)n1 (stereo not drawn),inactive: -4.5%
23,COC(=O)CSc1ncc(S(=O)(=O)c2ccccc2)c(=O)[nH]1,inactive: 9.3%
24,CC1(C)C2CCC1(CS(=O)(=O)N1CCN(c3ccc(F)cc3)CC1)C(=O)C2 (stereo not drawn),inconclusive: 4.9%

row,Structure (SMILES),inhibition
1,CC(=O)C(Sc1nc(N(C)C)nc(N(C)C)n1)C(=O)Nc1ccccc1 (stereo not drawn),inactive: -5.2%
2,CSc1nc2nc(C(F)(F)F)cc(-c3ccccc3)n2n1,inconclusive: 9.7%
3,O=C(CCSCCC(=O)NN=Cc1ccc(F)cc1)NN=Cc1ccc(F)cc1,inactive: -3.9%
4,COc1cc(/C=N/N2CCN(Cc3ccc(Cl)cc3)CC2)cc(Br)c1O,active: 36.4%
5,Cc1ccc(-c2c(C)c(-c3ccc(F)cc3)nc(N)c2C#N)o1,inconclusive: -6%
6,CCn1c(Oc2ccccc2F)nc2c1c(=O)n(C)c(=O)n2C,inactive: -22.4%
7,COc1ccc(/C=N/Nc2nc(C)cc(=O)[nH]2)cc1OC,inconclusive: 8.4%
8,O=C(NNC(=O)c1ccccc1O)c1ccc(Cl)c(S(=O)(=O)N2CCc3ccccc32)c1,inactive: 0.4%
9,COc1ccc(NC(=O)c2cc3ccc4c5ccccc5[nH]c4c3cc2O)cc1,inconclusive: -5.2%
10,Cc1ccc(C)c(OCC(O)CNC2CCCC2)c1 (stereo not drawn),inconclusive: -35.4%
11,Cc1ccc(-n2c(=O)[nH]c3c(C(N)=O)nc(C(C)C)nc32)cc1,inactive: -16.2%
12,O=C(Nc1nc(-c2ccc3c(c2)OCCO3)cs1)C1CCCC1,inactive: -9.9%
13,COc1ccc(C2(C)NC(=O)N(CC(=O)Nc3ccc(Br)c(C)c3)C2=O)cc1OC (stereo not drawn),inactive: 1.4%
14,CC(C)c1ccc(-c2nnn(CCC#N)n2)cc1,inactive: -5.1%
15,COc1ccc(CC(=O)N(C)Cc2ccc(Cl)cc2)cc1S(=O)(=O)N1CCOCC1,inconclusive: 0.9%
16,O=c1c(C(c2ccc(Cl)cc2)c2c(O)nc3n(c2=O)CCCS3)c(O)nc2n1CCCS2,inconclusive: -17%
17,Fc1ccc(NC(=S)Nc2cccc3ccccc23)cc1,inconclusive: -50.8%
18,C1=C(c2ccccc2)CCNC1,inconclusive: -157%
19,CCCC1Cc2c(sc3ncnc(N)c23)CO1 (stereo not drawn),inconclusive: 0.8%
20,CCC(=O)Nc1ccc(NC(=S)NC(=O)/C=C/c2ccco2)cc1,inconclusive: 7.1%
21,O=C1CSC(c2ccccc2)N1Cc1ccccn1 (stereo not drawn),inconclusive: -14.8%
22,Cn1nnnc1Sc1ncnc2scc(-c3ccsc3)c12,inactive: 0.1%
23,CC(C)CC(=O)NC(C)C(c1cccs1)N1CCOCC1 (stereo not drawn),inactive: -2.6%
24,O=C(CNC(=O)c1cccc(OC(F)F)c1)Nc1ccc(Cl)cc1,inconclusive: 10.6%

row,Structure (SMILES),inhibition
1,CSc1ncc(C(=O)Nc2ccccc2C)c(C)n1,inactive: 8.6%
2,Nc1ncnc(Nc2ccc(S(N)(=O)=O)cc2)n1,inconclusive: -0.1%
3,CC1(C)CC2(C)OCCN2C(=S)N1 (stereo not drawn),inconclusive: 20.7%
4,CC1(C)Cc2c(sc3nc(C4CCCCC4)n(N)c(=O)c23)CO1,inconclusive: -20.9%
5,O=C1C(=O)N(c2ccccn2)C(c2ccc(Br)cc2)/C1=C(/O)c1ccc(Br)cc1 (stereo not drawn),inconclusive: -18.2%
6,N#Cc1sc2nc3c(cc2c1N)CCCC3,inactive: 1.9%
7,O=C(NCCN1CCOCC1)c1cc(-c2ccc(F)cc2)nc2ccccc12,inconclusive: -1.1%
8,Cc1cccc(C)c1N1CCN(CCn2c(=S)[nH]c3ccccc3c2=O)CC1,inconclusive: -1.9%
9,Cc1ccc2cccc(OCCCOc3ccccc3CO)c2n1,inconclusive: -16.8%
10,OCCN1CCN(C2CCC(c3ccc(F)cc3)c3ccc(F)cc32)CC1 (stereo not drawn),inconclusive: -59.2%
11,Cc1cc(C(=O)CSc2nnc(-c3ccccc3)n2C)c(C)n1C,inactive: -2.9%
12,CC(C)(C)NC(=O)C(c1ccncc1)N(Cc1ccc(F)cc1)C(=O)c1ccc(-c2ccccc2)[nH]1 (stereo not drawn),inactive: 1.9%
13,N=c1ncn(CC(O)CN2CCOCC2)c2nc(N3CCOCC3)[nH]c12 (stereo not drawn),inactive: 0.7%
14,Cc1cc(C)c(-n2c(SCc3nc4ccccc4s3)n[nH]c2=O)c(C)c1,inconclusive: -73.5%
15,Cc1cc(C(=O)CSc2nnc(N)s2)c(C)n1CCc1ccc(F)cc1,inactive: -6.9%
16,O=C(CNC(=O)c1ccc(F)cc1)NCc1ccc(Cl)cc1,inconclusive: -22.6%
17,C[C@@H](C(=O)N=c1sc2ccccc2n1C)N1C(=O)C2CC=CCC2C1=O (stereo partly drawn),inactive: -2%
18,Cc1ccccc1OCC(=O)NCC1CCCO1 (stereo not drawn),inconclusive: -28.8%
19,CCC(C)(C)n1nnnc1C(C(C)C)N(Cc1ccco1)Cc1cc2cc3c(cc2[nH]c1=O)OCO3 (stereo not drawn),active: 37.9%
20,O=C(NNC(=O)c1ccccc1O)c1cccc(Br)c1,inconclusive: -6.8%
21,Cc1ccc(C(=O)NNc2ncnc3c2cnn3C)cc1,inconclusive: 119%
